# Test results taken from article PMC12709185.
# Chains of the proteins cited; added tags and fusions are not shown. Lines headed by an entry give the natural chain unless they say otherwise; changes in a name come on top.
# UniProt P26368: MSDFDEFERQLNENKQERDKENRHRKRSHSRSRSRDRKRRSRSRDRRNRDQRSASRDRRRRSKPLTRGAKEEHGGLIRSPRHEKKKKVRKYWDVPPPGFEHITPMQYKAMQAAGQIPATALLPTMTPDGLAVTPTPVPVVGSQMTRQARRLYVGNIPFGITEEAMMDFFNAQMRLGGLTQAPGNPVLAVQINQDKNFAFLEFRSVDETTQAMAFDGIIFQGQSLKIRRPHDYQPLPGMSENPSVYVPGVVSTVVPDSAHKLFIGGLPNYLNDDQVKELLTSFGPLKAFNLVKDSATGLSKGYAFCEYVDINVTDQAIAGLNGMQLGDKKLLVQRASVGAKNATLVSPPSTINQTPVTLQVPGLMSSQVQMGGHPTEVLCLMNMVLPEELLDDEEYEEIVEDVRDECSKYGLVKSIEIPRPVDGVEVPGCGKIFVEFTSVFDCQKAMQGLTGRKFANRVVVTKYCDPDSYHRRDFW
# Results are given in words; binding and its absence hold for the method and conditions named. Binding seen in cells or lysates may run through a third protein. Some results given as binding are weak or reduced against the parent protein; the word gives no strength. Tags and fused reporters may be left off the sequences shown.
# T1: hU2AF1::HA (human U2AF1, wild type) (human) (UniProt Q01081)
# T1 sequence: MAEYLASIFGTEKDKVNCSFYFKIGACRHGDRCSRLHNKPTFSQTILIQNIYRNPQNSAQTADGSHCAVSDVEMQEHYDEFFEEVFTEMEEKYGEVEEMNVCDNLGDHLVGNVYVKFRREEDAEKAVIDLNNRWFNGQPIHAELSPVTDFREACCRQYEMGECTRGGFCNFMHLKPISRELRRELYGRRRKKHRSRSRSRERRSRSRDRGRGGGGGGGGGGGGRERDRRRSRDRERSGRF
# How the values were obtained:
# Experiment in all cases: co-IP; HEK293T cells co-expressing U2AF2::FLAG and U2AF1::HA lysed in NP-40 buffer; Protein A/G magnetic beads pre-incubated with anti-HA or anti-FLAG antibody; western blot
# [1] = biological target: T1, hU2AF1::HA (human U2AF1, wild type) (human)
# [2] = biological target: hU2AF2(T145I)::FLAG (human U2AF2 T145I) (human) (UniProt P26368)
# [3] = biological target: hU2AF2::FLAG (human U2AF2, wild type) (human) (UniProt P26368)
binding [1],binding [2],binding [3],Molecule
binds,,,hU2AF2(T145I)::FLAG (human U2AF2 T145I) (from UniProt P26368-1 1-475)
binds,,,"hU2AF2::FLAG (human U2AF2, wild type) (from UniProt P26368-1 1-475)"
,binds,binds,"hU2AF1::HA (human U2AF1, wild type) (protein, UniProt Q01081-2 1-240) MAEYLASIFGTEKDKVNCSFYFKIGACRHGDRCSRLHNKPTFSQTILIQNIYRNPQNSAQTADGSHCAVSDVEMQEHYDEFFEEVFTEMEEKYGEVEEMNVCDNLGDHLVGNVYVKFRREEDAEKAVIDLNNRWFNGQPIHAELSPVTDFREACCRQYEMGECTRGGFCNFMHLKPISRELRRELYGRRRKKHRSRSRSRERRSRSRDRGRGGGGGGGGGGGGRERDRRRSRDRERSGRF"
